The text below walks through data of patent publication EP2963052A2 (Zamerton Holdings Limited, priority 2013, dated 2016).

Strings that start with PEPTIDE1 are HELM notation: dots part the residues, brackets hold end groups and non-standard residues.

A short description of this data set: general procedure: solution-phase peptide synthesis; p-nitrophenyl (ONP) active esters. The conditions noted are these: late stage modification step.

Ala-Asp-Glu-Arg gave a step yield of 82%.
Regarding PEPTIDE1{A.D.E.R}$$$$V2.0, the “final HPLC purity” value (HPLC) is “exceeding 95%”.
